The target of the assay is T1, FimA-EF-N81ter (EF-hand domain of the Dictyostelium discoideum FimA headpiece, residues 1-80, lacking the H5 region) (Dictyostelium discoideum) (UniProt P54680).
T1 sequence: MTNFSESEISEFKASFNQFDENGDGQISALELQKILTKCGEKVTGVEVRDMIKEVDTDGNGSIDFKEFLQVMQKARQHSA
In words: NMR titration; H5 peptide titrated into FimA-EF-N81ter in the presence of the calmodulin antagonists W7 or TFP, 1H,15N-HSQC; 25 °C, 100 mM KCl, 20 mM Bis-Tris pH 7.0; both purified.

No constants are given. Whether binding was seen depends on the method and setting.

For the molecule SANASPAFASAVKK (N-terminal acetyl (Ac-); C-terminal amide (-NH2)), the binding result is reported as “no binding (condition: in the presence of W7 or TFP)”.

The values are drawn from article PMC10533516, “The Dictyostelium discoideum FimA protein, unlike yeast and plant fimbrins, is regulated by calcium similar to mammalian plastins” (Scientific Reports, 2023).
